PubChem BioAssay AID504804 | Drosophila RNAi Screening Center | 2011
The screen tested about 19,000 reagents; shown is a random part of those that have a named target and a result. In the full data, 47 (0.25%) got an active call. 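Signals are raw, not normalised; exact z-scores behind calls not deposited; actives needed confirmation, so some wells reaching 2 SD are inactive.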 Entries without a mark were called inactive. Names joined by + are all predicted targets of the reagent. Reagent sequences are not shown.

Aim: 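dsRNAs that improve Kc cell survival under doxorubicin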 (primary screen)
Cell system: Drosophila Kc cells
Reagent: long dsRNA against Drosophila genes, 0.5 µg dsRNA per well
Timing: 96 h (48 h knock-down, then 48 h drug)
Conditions: doxorubicin 5 µg/ml for 48 h, added 48 h after dsRNA
Read-out: 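Viability measured as cellular ATP by luminescence after 48 h knock-down then 48 h doxorubicin at 5 µg/ml; unnormalised plate counts for each replicate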
Reading the numbers: raw ATP luminescence: higher = more viable cells, protection from doxorubicin
Hit rule: 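Active when both duplicate wells lie at least 2 SD above the plate mean and protection is confirmed by rescreening and independent dsRNAs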

Target gene,amplicon,"raw ATP luminescence, replicate 1","raw ATP luminescence, replicate 2"
emei,DRSC10897,80007,57160
IntS12,DRSC15818,47680,44660
Jheh1,DRSC06529,57553,55113
Cdc50,DRSC20224,3.59e5,3.84e5
CG10492,DRSC02064,31733,31907
CG40341 (retired record),DRSC01767,61570,73103
CG40341 (retired record),DRSC03750,59967,54670
CG6878,DRSC10737,89763,67530
Prp6,DRSC10724,22720,21070
CG3216,DRSC04347,74913,65223
tral,DRSC09779,22513,33640
ath,DRSC02788,40227,68510
Gr59c,DRSC04185,38117,59063
CG7457,DRSC10849,79197,84180
CG7236,DRSC03037,27720,25640
ProtB,DRSC03373,45513,62293
CG6154,DRSC15977,65050,68660
CG11699,DRSC19419,3.25e5,3.07e5
Akap200,DRSC01864,92220,74413
CG32196,DRSC09548,81983,1.10e5
Gr47b,DRSC05275,82530,79180
GEFmeso,DRSC06748,66890,70190
E(Pc),DRSC05281,53103,60067
CG5188,DRSC02826,38963,71967
CG11349,DRSC08179,1.19e5,73247
CG30345,DRSC05144,76673,70750
crc,DRSC03513,56653,52870
CG3587,DRSC18541,2.41e5,2.58e5
CG34315 + Orc3,DRSC07642,46133,74047
beta'COP,DRSC03492,72077,82387
kirre,DRSC18785,57220,53800
CG34427,DRSC09978,76633,83050

In a second layout: results already given.
{"Target gene": "CG34315 + Orc3", "amplicon": "DRSC07642", "raw ATP luminescence, replicate 1": 46133, "raw ATP luminescence, replicate 2": 74047}
{"Target gene": "beta'COP", "amplicon": "DRSC03492", "raw ATP luminescence, replicate 1": 72077, "raw ATP luminescence, replicate 2": 82387}
{"Target gene": "kirre", "amplicon": "DRSC18785", "raw ATP luminescence, replicate 1": 57220, "raw ATP luminescence, replicate 2": 53800}

The results go on:
Target gene,amplicon,"raw ATP luminescence, replicate 1","raw ATP luminescence, replicate 2"
CG11378,DRSC18627,42040,52990
bun,DRSC01253,2.35e5,2.33e5
bun,DRSC01255,2.00e5,1.82e5
bun,DRSC03500,33327,30203
bisc,DRSC04083,72160,61717
Pkn,DRSC06809,74657,57900
Pkn,DRSC06810,50213,71993
Ip259,DRSC03352,85400,64433
CG14565,DRSC11726,73890,72773
Dbp73D,DRSC11142,34340,30873
CG8065,DRSC10959,75757,53403
Hml,DRSC11183,66413,73933
sta,DRSC18838,34490,31810
CG31999,DRSC17131,54850,46280
CG31999,DRSC17133,47740,44400
CAH1 + Adat1,DRSC02009,76510,62793
Usp32,DRSC10979,56717,68910
l(3)07882,DRSC15882,51547,58457
CG9747,DRSC16554,1.88e5,1.44e5
moody,DRSC18515,69540,57140
CG1638,DRSC15132,45740,49510
CG6380,DRSC02950,66750,80193
Kua,DRSC02100,56997,76933
CG32112,DRSC09815,72733,73873
Tina-1,DRSC04317,80790,82480
